# In PubChem BioAssay AID342 (DTP/NCI, 2004):
# The list is a part of this screen's results and no random one: it covers a few groups of compounds. Other doses and runs of a compound may be missing. T/C is the treated group as % of the vehicle group. Schedules are NCI's codes, taken here to give the interval after Q, in days (D) or hours (H), and the number of doses after X. Some entries hold several experiments; the values are given in rising order. Some schedule codes hold Z or #, which are not explained here. Some T/C values carry the count of animals alive at the toxicity check; where neither a count nor a note follows, no animal had died by that day. Some T/C values are marked as having no survivor count here; that says nothing about deaths at the dose. Some doses have a count of surviving animals in place of a T/C: the source files T/C as zero there, which appears to mark a toxic dose or a test without result, not a measured value. Survivors were counted at the toxicity check; its day is shown where the source gives one, and later deaths do not show.
# Tested on: Swiss mice, Sarcoma 180 sc, mean tumor weight T/C
# Assay: NCI In Vivo Anticancer Drug Screen. Data for tumor model Sarcoma 180 (subcutaneous) in Swiss mice
# Details: T/C endpoint: mean tumor weight, higher T/C = larger tumour
# Method: The antitumor activity of compounds was measured in mice bearing transplantable tumors. Survival or tumor size were measured and the results are expressed as the measurement made in the treated group (T) divided by the measurement made in the vehicle treated control group (C). The tumor model used in this assay is Sarcoma 180 (subcutaneous) in Swiss mice
# [1] = dose: 50.0 mg/kg/injection, schedule: Q#A X014 (ip), vehicle: methylcellulose (MC), evaluated on day 8
# [2] = dose: 22.0 mg/kg/injection, schedule: Q#A X014 (ip), vehicle: methylcellulose (MC), evaluated on day 8
# [3] = dose: 33.0 mg/kg/injection, schedule: Q#A X014 (ip), vehicle: methylcellulose (MC), evaluated on day 8
compound,measurement,setting,value
CC(C)/C(=N\P(=O)(c1ccccc1)c1ccccc1)N(C)C,T/C,"dose: 31.0 mg/kg/injection, schedule: Q01DX007 (ip), vehicle: carboxymethylcellulose (CMC), evaluated on day 8",83 % of control [6 of 7 alive]
same,T/C,"dose: 62.5 mg/kg/injection, schedule: Q01DX007 (ip), vehicle: carboxymethylcellulose (CMC), evaluated on day 8",91 % of control [5 of 7 alive]
same,survivor count,"dose: 125.0 mg/kg/injection, schedule: Q01DX007 (ip), vehicle: carboxymethylcellulose (CMC)",4 of 7
same,survivor count,"dose: 250.0 mg/kg/injection, schedule: Q01DX007 (ip), vehicle: carboxymethylcellulose (CMC)",0 of 6
same,survivor count,"dose: 500.0 mg/kg/injection, schedule: Q01DX007 (ip), vehicle: carboxymethylcellulose (CMC)",0 of 7
CC(C)N(CCCl)/N=N/c1nc2nc(N)[nH]c(=O)c2[nH]1,T/C,"dose: 12.5 mg/kg/injection, schedule: Q#A X014 (ip), vehicle: methylcellulose (MC), evaluated on day 8",85 % of control
same,T/C,"dose: 25.0 mg/kg/injection, schedule: Q#A X014 (ip), vehicle: methylcellulose (MC), evaluated on day 8",85 % of control
same,T/C,[1],62 % of control
same,T/C,"dose: 100.0 mg/kg/injection, schedule: Q#A X014 (ip), vehicle: methylcellulose (MC), evaluated on day 8",56 % of control [4 of 6 alive]
CCN(CCCl)/N=N/c1nc2nc(N)[nH]c(=O)c2[nH]1,T/C,"dose: 12.0 mg/kg/injection, schedule: Q#A X014 (ip), vehicle: methylcellulose (MC), evaluated on day 8",86 % of control
same,T/C,"dose: 17.5 mg/kg/injection, schedule: Q#A X014 (ip), vehicle: methylcellulose (MC), evaluated on day 8",90 % of control [5 of 6 alive]
same,survivor count,"dose: 25.0 mg/kg/injection, schedule: Q#A X014 (ip), vehicle: methylcellulose (MC)",3 of 6
same,T/C,"dose: 37.5 mg/kg/injection, schedule: Q#A X014 (ip), vehicle: methylcellulose (MC), evaluated on day 8",110 % of control [4 of 6 alive]
O[C@H](CNCCCl)[C@@H](O)CNCCCl,T/C,"dose: 3.8 mg/kg/injection, schedule: Q#A X014 (ip), vehicle: methylcellulose (MC), evaluated on day 8",77 % of control
same,T/C,"dose: 5.65 mg/kg/injection, schedule: Q#A X014 (ip), vehicle: methylcellulose (MC), evaluated on day 8",48 % of control [5 of 6 alive]
same,T/C,"dose: 8.5 mg/kg/injection, schedule: Q#A X014 (ip), vehicle: methylcellulose (MC), evaluated on day 8",40 % of control
same,survivor count,"dose: 12.5 mg/kg/injection, schedule: Q#A X014 (ip), vehicle: methylcellulose (MC)",1 of 6
CN(CCCl)CC1OC(O)C(O)C(O)C1O (stereo not given),T/C,"dose: 9.5 mg/kg/injection, schedule: Q#A X014 (ip), vehicle: saline, evaluated on day 8",50 % of control [5 of 6 alive]
same,T/C,"dose: 14.5 mg/kg/injection, schedule: Q#A X014 (ip), vehicle: saline, evaluated on day 8",41 % of control
same,T/C,"dose: 15.0 mg/kg/injection, schedule: Q#A X014 (ip), vehicle: saline, evaluated on day 8",59 % of control
same,T/C,[2],66 % of control
same,T/C,"dose: 22.0 mg/kg/injection, schedule: Q#A X014 (ip), vehicle: saline, evaluated on day 8",32 and 61 % of control [4 of 6 alive]
same,T/C,"dose: 22.5 mg/kg/injection, schedule: Q#A X014 (ip), vehicle: saline, evaluated on day 8",30 % of control
same,T/C,[3],34 % of control [4 of 6 alive]
same,T/C,"dose: 33.0 mg/kg/injection, schedule: Q#A X014 (ip), vehicle: saline, evaluated on day 8",20 and 47 % of control [5 of 6 alive]
same,T/C,"dose: 33.5 mg/kg/injection, schedule: Q#A X014 (ip), vehicle: saline, evaluated on day 8",17 % of control [5 of 6 alive]
same,survivor count,"dose: 50.0 mg/kg/injection, schedule: Q#A X014 (ip), vehicle: saline",1 of 6
O=C(O)/C=C\c1cccc(N(CCCl)CCCl)c1,T/C,"dose: 3.12 mg/kg/injection, schedule: Q01DX007 (ip), vehicle: carboxymethylcellulose (CMC), evaluated on day 8",122 % of control
same,T/C,"dose: 6.25 mg/kg/injection, schedule: Q01DX007 (ip), vehicle: carboxymethylcellulose (CMC), evaluated on day 8",74 % of control
same,T/C,"dose: 12.5 mg/kg/injection, schedule: Q01DX007 (ip), vehicle: carboxymethylcellulose (CMC), evaluated on day 8",68 % of control
same,T/C,[2],62 and 72 % of control
same,T/C,[3],27 and 41 % of control
same,T/C,[1],18 [5 of 6 alive] and 25 % of control
same,T/C,"dose: 53.0 mg/kg/injection, schedule: Q01DX007 (ip), vehicle: carboxymethylcellulose (CMC), evaluated on day 8",17 % of control [4 of 6 alive]
same,T/C,"dose: 75.0 mg/kg/injection, schedule: Q#A X014 (ip), vehicle: methylcellulose (MC), evaluated on day 8",14 [5 of 6 alive] and 16 % of control
same,survivor count,"dose: 80.0 mg/kg/injection, schedule: Q01DX007 (ip), vehicle: carboxymethylcellulose (CMC)",1 of 6
same,survivor count,"dose: 200.0 mg/kg/injection, schedule: Q01DX007 (ip), vehicle: carboxymethylcellulose (CMC)",0 of 6
same,survivor count,"dose: 300.0 mg/kg/injection, schedule: Q01DX007 (ip), vehicle: carboxymethylcellulose (CMC)",0 of 6
same,survivor count,"dose: 450.0 mg/kg/injection, schedule: Q01DX007 (ip), vehicle: carboxymethylcellulose (CMC)",0 of 6
same,survivor count,"dose: 675.0 mg/kg/injection, schedule: Q01DX007 (ip), vehicle: carboxymethylcellulose (CMC)",0 of 6
CC1=C2C(=CC(C)(C)C2O)C(O)C(C)(O)C12CC2 (stereo not given),T/C,"dose: 0.25 mg/kg/injection, schedule: Q01DX007 (ip), vehicle: saline, evaluated on day 8",49 % of control
same,T/C,"dose: 0.5 mg/kg/injection, schedule: Q01DX007 (ip), vehicle: saline, evaluated on day 8",72 % of control
same,T/C,"dose: 1.0 mg/kg/injection, schedule: Q01DX007 (ip), vehicle: saline, evaluated on day 8",63 % of control
same,T/C,"dose: 2.0 mg/kg/injection, schedule: Q01DX007 (ip), vehicle: saline, evaluated on day 8",103 % of control
same,T/C,"dose: 4.0 mg/kg/injection, schedule: Q01DX007 (ip), vehicle: saline, evaluated on day 8",109 % of control [5 of 6 alive]
same,T/C,"dose: 8.0 mg/kg/injection, schedule: Q01DX007 (ip), vehicle: saline, evaluated on day 8",126 % of control
same,T/C,"dose: 16.0 mg/kg/injection, schedule: Q01DX007 (ip), vehicle: saline, evaluated on day 8",98 and 104 % of control
same,T/C,"dose: 32.0 mg/kg/injection, schedule: Q01DX007 (ip), vehicle: saline, evaluated on day 8",95 and 134 % of control
same,T/C,"dose: 64.0 mg/kg/injection, schedule: Q01DX007 (ip), vehicle: saline, evaluated on day 8",79 % of control
same,T/C,"dose: 128.0 mg/kg/injection, schedule: Q01DX007 (ip), vehicle: saline, evaluated on day 8",64 % of control
CCOP(=O)(CC)OCCCCOP(=O)(CC)OCC (stereo not given),T/C,"dose: 4.0 mg/kg/injection, schedule: Q01DX007 (ip), vehicle: saline, evaluation day not shown",96 % of control [survivor count not shown]
same,T/C,"dose: 6.0 mg/kg/injection, schedule: Q01DX007 (ip), vehicle: saline, evaluation day not shown",112 % of control [survivor count not shown]
same,T/C,"dose: 8.0 mg/kg/injection, schedule: Q01DX007 (ip), vehicle: saline, evaluation day not shown",117 % of control [survivor count not shown]
Cn1cc(N(CCCl)CCCl)c(=O)[nH]c1=O,T/C,"dose: 0.45 mg/kg/injection, schedule: Q#A X014 (ip), vehicle: methylcellulose (MC), evaluated on day 8",58 and 61 % of control
same,T/C,"dose: 0.65 mg/kg/injection, schedule: Q#A X014 (ip), vehicle: methylcellulose (MC), evaluated on day 8",60 and 70 % of control
same,T/C,"dose: 1.0 mg/kg/injection, schedule: Q#A X014 (ip), vehicle: methylcellulose (MC), evaluated on day 8","13, 52, 62 % of control [5 of 6 alive]"
same,T/C,"dose: 1.1 mg/kg/injection, schedule: Q#A X014 (ip), vehicle: methylcellulose (MC), evaluated on day 8",7 % of control [5 of 6 alive]
same,T/C,"dose: 1.5 mg/kg/injection, schedule: Q#A X014 (ip), vehicle: methylcellulose (MC), evaluated on day 8","5 [4 of 6 alive], 28 [5 of 6 alive], 40 % of control"
same,T/C,"dose: 1.65 mg/kg/injection, schedule: Q#A X014 (ip), vehicle: methylcellulose (MC), evaluated on day 8",15 % of control
same,survivor count,"dose: 2.5 mg/kg/injection, schedule: Q#A X014 (ip), vehicle: methylcellulose (MC)",1 of 6
